Measurements reported in PubChem BioAssay AID1259254 (NCATS, 2017)

Aim: 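Genome-wide screen for genes that prevent DNA re-replication in cancer cells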 (primary screen)
Cell system: human HCT116 colorectal cancer cells
Knock-down reagent: single siRNA against human genes
Timing: 3 days
Measured: 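Nuclei stained with Hoechst and imaged; cell-cycle phase assigned by DNA content; G2 share scaled per plate, non-targeting siRNA 0%, GMNN siRNA 100%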
Reading the numbers: G2 robust z-score: higher = more G2 cells, more excess DNA replication
Active means: 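Active siRNAs have a G2 robust z of 5 or more median absolute deviations over the median, which in these data means about 38% or higher of GMNN control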
In all, the deposit lists about 59,000 reagents; shown is a random part of them. About 1,550 of them (2.6%) were called active. 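G2 share is only a proxy for re-replication; each gene was hit by three separate siRNAs, and active genes were retested.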 Unmarked entries are inactive. Reagents against one gene are numbered here. Further read-outs or replicates are left out here. Reagent sequences are not shown. Not stated in the record: the amount of reagent.

G2 robust z-score, by target and reagent
SLC12A6: #1 -0.114; #2 -0.804; #3 0.0458
KLF17: #1 2.69; #2 0.762; #3 -0.267
PFDN4: #1 0.013; #2 2.7; #3 -0.0183
SLC67A1-AS: #1 1.64; #2 -0.174; #3 -0.456
HHIP: #1 -1.75; #2 2.74; #3 -0.867
DSG4: #1 -0.744; #2 0.446; #3 0.64
GASK1A: #1 1; #2 0.288; #3 -0.264
PCDHB8: #1 1.86; #2 -0.873; #3 -1.13
LOC649935 (retired record): #1 2.36; #2 -0.639; #3 0.418
GRM2: #1 4.83; #2 4.87; #3 7.38 (active)
WNT8A: #1 1.06; #2 -0.438; #3 -0.00054
TFB1M: #1 0.748; #2 3.08; #3 0.839
TFAP2D: #1 -0.859; #2 -0.0332; #3 -0.623
FXN: #1 1.89; #2 0.112; #3 0.219
ATP6V1G2: #1 -0.0616; #2 0.156; #3 0.476
ARMC12: #1 -1.01; #2 4.92; #3 1.16

A stretch taken from the entries so far:
G2 robust z-score, by target and reagent
TFAP2D: #1 -0.859; #2 -0.0332; #3 -0.623
FXN: #1 1.89; #2 0.112; #3 0.219
ATP6V1G2: #1 -0.0616; #2 0.156
